Article PMC3097235
No constants are given. Whether binding was seen depends on the method and setting. In cells and extracts the contact can be indirect. Some results given as binding are weak or reduced against the parent protein; the word gives no strength. Sequences can lack the tags named with a protein.

Key:
Assay in all cases: co-IP; HEK 293 cells co-transfected with tyrosinase constructs and EDEM1, pulse-chased for 20 min; lysates precipitated with T311 anti-tyrosinase antibodies; autoradiography
[1] = target: T1, human tyrosinase N-glycosylation mutant Δ1 (N86Q) (human) (UniProt P14679)
T1 sequence: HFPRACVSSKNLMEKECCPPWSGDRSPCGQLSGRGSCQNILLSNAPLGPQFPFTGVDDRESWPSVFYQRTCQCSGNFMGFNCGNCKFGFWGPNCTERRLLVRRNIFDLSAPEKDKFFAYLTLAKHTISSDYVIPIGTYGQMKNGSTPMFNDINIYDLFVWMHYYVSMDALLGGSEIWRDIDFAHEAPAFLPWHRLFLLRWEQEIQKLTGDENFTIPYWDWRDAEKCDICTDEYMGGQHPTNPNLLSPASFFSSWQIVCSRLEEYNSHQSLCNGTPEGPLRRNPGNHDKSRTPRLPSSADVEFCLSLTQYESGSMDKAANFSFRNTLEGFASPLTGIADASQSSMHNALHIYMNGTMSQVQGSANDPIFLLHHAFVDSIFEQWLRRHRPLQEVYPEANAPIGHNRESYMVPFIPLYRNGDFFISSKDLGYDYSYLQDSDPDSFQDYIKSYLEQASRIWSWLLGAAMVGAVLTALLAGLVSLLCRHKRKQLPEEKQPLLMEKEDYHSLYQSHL

[2] = target: T2, human tyrosinase N-glycosylation mutant Δ3 (N161Q) (human) (UniProt P14679)
T2 sequence: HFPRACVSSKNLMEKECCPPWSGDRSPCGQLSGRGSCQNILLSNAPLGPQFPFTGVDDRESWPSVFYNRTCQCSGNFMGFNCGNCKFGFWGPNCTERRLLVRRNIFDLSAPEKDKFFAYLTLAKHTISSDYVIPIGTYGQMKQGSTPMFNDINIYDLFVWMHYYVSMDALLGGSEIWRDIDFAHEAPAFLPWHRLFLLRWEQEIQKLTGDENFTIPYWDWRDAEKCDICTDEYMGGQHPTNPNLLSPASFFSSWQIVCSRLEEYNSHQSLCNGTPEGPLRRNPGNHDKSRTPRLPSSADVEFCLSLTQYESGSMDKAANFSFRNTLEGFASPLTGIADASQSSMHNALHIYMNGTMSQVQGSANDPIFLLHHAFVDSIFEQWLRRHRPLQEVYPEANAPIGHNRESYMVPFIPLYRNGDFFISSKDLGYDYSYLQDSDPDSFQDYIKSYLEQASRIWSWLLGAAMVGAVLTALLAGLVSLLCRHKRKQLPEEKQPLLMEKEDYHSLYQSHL

[3] = target: T3, wild type human tyrosinase (human) (UniProt P14679)
T3 sequence: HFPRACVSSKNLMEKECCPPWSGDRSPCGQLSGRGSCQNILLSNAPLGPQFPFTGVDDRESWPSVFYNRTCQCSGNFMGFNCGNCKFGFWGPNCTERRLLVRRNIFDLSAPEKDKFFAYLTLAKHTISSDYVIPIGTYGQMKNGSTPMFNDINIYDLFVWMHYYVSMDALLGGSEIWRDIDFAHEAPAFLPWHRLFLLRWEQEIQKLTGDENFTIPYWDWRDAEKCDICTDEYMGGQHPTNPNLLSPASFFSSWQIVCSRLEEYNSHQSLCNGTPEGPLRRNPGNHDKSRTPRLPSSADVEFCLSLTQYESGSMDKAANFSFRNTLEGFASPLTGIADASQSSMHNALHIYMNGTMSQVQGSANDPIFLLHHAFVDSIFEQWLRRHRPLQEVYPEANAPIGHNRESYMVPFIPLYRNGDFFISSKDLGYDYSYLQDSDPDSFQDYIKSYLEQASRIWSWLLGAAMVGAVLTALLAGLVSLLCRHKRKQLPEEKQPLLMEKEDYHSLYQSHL

- binding [1]: binds
- binding [2]: binds
- binding [3]: binds
B1: mouse EDEM fused to an HA-tag (protein, UniProt Q925U4 1-652)
chain: MQWRALVLGLVLLRLGLHAVLWLVFGLGPSMGFYQRFPLSFGFQRLRDPDGSGPVGPPGGPAWLHRPRRGTEGRLETPPEPGPTPGPGVCGPAHWGYALGGGGCGPDEYERRYSGAFPPQLRAQMRDLARGMFVFGYDNYMAHAFPQDELNPIYCRGRGPDRGDPSNLNINDVLGNYSLTLVDALDTLAIMGNSSEFQKAVKLVINTVSFDKDSTVQVFEATIRVLGSLLSAHRIITDSKQPFGDMTIEDYDNELLYMAHDLAVRLLPAFENTKTGIPYPRVNLKTGVPPDSNNETCTAGAGSLLVEFGILSRLLGDSTFEWVARRAVKALWNLRSNDTGLLGNVVNIQTGHWVGKQSGLGAGLDSFYEYLLKSYILFGEKEDLEMFNAAYQSIQSYLRRGREACNEGEGDPPLYVNVNMFSGQLMNTWIDSLQAFFPGLQVLIGDVEDAICLHAFYYAIWKRYGALPERYNWQLQAPDVLFYPLRPELVESTYLLYQATKNPFYLHVGMDILQSLEKYTKVKCGYATLHHVIDKSKEDRMESFFLSETCKYLYLLFDEENPVHKSGTRYMFTTEGHIISVDKRLRELPWKEFFSEDGERDQEEKFVHRPKSQELRVINSSSNCNRVPDERRYSLPLKSIYMRQIDQMVGLI
